Data on one substance can be found in article PMC8655068, “Quantitative proteomic screen identifies annexin A2 as a host target for Salmonella pathogenicity island-2 effectors SopD2 and PipB2” (Scientific Reports, 2021).

Protein sequences, listed by entry. Tags and fused reporters are not part of them.
UniProt P07355: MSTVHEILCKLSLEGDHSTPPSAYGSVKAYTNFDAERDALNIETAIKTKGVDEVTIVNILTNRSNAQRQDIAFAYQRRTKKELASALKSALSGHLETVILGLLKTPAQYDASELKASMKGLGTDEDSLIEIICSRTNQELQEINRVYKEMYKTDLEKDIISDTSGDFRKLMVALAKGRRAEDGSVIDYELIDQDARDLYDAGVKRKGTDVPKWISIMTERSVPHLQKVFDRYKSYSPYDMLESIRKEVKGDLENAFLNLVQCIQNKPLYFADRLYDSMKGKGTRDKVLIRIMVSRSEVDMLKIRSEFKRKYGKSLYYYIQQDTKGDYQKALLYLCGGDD

Test [1] has as its target T1, PipB2-2HA (S. Typhimurium SL1344) (UniProt Q8ZMM8).
T1 sequence: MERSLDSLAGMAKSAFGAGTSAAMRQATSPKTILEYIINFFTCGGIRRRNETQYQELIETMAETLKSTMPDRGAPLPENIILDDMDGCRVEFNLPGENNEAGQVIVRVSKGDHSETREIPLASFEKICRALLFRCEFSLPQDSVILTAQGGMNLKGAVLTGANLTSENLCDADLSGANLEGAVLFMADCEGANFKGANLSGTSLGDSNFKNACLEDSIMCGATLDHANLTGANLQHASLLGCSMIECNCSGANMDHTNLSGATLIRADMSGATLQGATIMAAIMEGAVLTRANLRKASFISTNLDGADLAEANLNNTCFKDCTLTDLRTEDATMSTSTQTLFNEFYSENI
Briefly: affinity purification with mass spectrometry; SILAC-labelled HeLa cells infected 8 h with T3SS2+ S. Typhimurium secreting an HA-tagged effector; RIPA lysate mixed 1:1 with oppositely labelled lysate of vector-control infection; anti-HA magnetic beads overnight at 4 °C; basic elution, SDS-PAGE, in-gel digestion, LC-MS/MS; 3 replicates with one label swap.

In test [2] the target is T2, SopD2-2HA (S. Typhimurium SL1344) (UniProt Q8ZQC8).
T2 sequence: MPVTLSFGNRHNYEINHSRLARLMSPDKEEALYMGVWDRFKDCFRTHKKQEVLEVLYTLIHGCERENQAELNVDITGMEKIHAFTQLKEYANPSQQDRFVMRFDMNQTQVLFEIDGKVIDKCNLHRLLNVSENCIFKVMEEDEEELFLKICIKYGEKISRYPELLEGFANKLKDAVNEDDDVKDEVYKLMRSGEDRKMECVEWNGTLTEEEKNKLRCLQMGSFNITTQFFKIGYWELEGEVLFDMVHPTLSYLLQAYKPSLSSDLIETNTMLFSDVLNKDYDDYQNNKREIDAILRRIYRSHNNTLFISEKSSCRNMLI
Described as above.

These are yes or no findings as the source states them, for the method shown. In cells and extracts the contact can be indirect. Here binding means that the protein was enriched with, or labelled near, the bait; the list need not be complete.

For “annexin A2 (AnxA2), endogenous in HeLa cells (from UniProt P07355 1-339)”, the binding entry in test [1] and in test [2] was “binds” each time.
